In experiment [1] the target is T1, GST-CtIP (aa 700–799) (human) (UniProt Q99708).
T1 sequence: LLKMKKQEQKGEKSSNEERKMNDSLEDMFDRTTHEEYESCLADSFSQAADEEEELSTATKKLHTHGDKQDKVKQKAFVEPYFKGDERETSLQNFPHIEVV
Description: pull-down; bacterially expressed GST fusions immobilized on Glutathione Sepharose 4B beads, incubated with HeLa lysates (TEN100 buffer) 3 h at 4°C, washed with NTEN buffer (300 mM NaCl, 0.5% NP-40), immunoblot; only the target purified. Background: A western blot detects proteins with antibodies after separation by electrophoresis.

The target in experiment [2] is endogenous CtIP (human (endogenous in HeLa)) (UniProt Q99708). Briefly: co-IP; endogenous proteins in HeLa lysates, untreated, 30 min after IR or 3 h after HU; immunoprecipitation of either partner, immunoblot.
In experiment [3] the target is C-terminal region of CtIP (aa 500–897) (human) (UniProt Q99708). Description: two-hybrid; yeast two-hybrid screen for proteins that interact with the C-terminal region of CtIP (aa 500–897).

These are yes or no findings as the source states them, for the method shown. For some of these results: Binding seen in cells or lysates may run through a third protein. Some binding calls cover weakened binding; strength is not graded here. For some of these results: Tags and fused reporters may be left off the sequences shown.

B1: endogenous SIAH2 (protein, UniProt O43255 1-324)
chain: MSRPSSTGPSANKPCSKQPPPQPQHTPSPAAPPAAATISAAGPGSSAVPAAAAVISGPGGGGGAGPVSPQHHELTSLFECPVCFDYVLPPILQCQAGHLVCNQCRQKLSCCPTCRGALTPSIRNLAMEKVASAVLFPCKYATTGCSLTLHHTEKPEHEDICEYRPYSCPCPGASCKWQGSLEAVMSHLMHAHKSITTLQGEDIVFLATDINLPGAVDWVMMQSCFGHHFMLVLEKQEKYEGHQQFFAIVLLIGTRKQAENFAYRLELNGNRRRLTWEATPRSIHDGVAAAIMNSDCLVFDTAIAHLFADNGNLGINVTISTCCP
With B1, the binding entry in experiment [1] and in experiment [2] was “binds” each time.

B2: SIAH2 (protein, UniProt O43255 1-324)
chain: B1 chain
For the molecule B2, in experiment [3], the binding result is reported as “binds”.

B3: SIAH1 (protein, UniProt Q8IUQ4 1-282)
chain: MSRQTATALPTGTSKCPPSQRVPALTGTTASNNDLASLFECPVCFDYVLPPILQCQSGHLVCSNCRPKLTCCPTCRGPLGSIRNLAMEKVANSVLFPCKYASSGCEITLPHTEKADHEELCEFRPYSCPCPGASCKWQGSLDAVMPHLMHQHKSITTLQGEDIVFLATDINLPGAVDWVMMQSCFGFHFMLVLEKQEKYDGHQQFFAIVQLIGTRKQAENFAYRLELNGHRRRLTWEATPRSIHEGIATAIMNSDCLVFDTSIAQLFAENGNLGINVTISMC
Regarding B3, the binding entry in experiment [3] is “binds”.

For the origin of these results see PMC9561274.
